One molecule from paper PMC6957481 can be followed below.

The experiment deals with Hho1-FZZ (Tetrahymena thermophila). As to the kind of experiment: affinity purification with mass spectrometry; FZZ-tagged bait expressed from its endogenous MAC locus, captured on anti-FLAG M2-agarose at 4 °C from Benzonase-treated whole cell extracts (10 mM Tris-HCl pH 7.5, 1 mM MgCl2, 300 mM NaCl, 0.2% NP40); cells in vegetative growth, starved 24 h, or conjugating (6 h post mixing); two biological replicates; SAINTexpress against untagged cells, FDR ≤ 1%.

Results are given in words; binding and its absence hold for the method and conditions named. Binding seen in cells or lysates may run through a third protein. Here binding means that the protein was enriched with, or labelled near, the bait; the list need not be complete.

B1: Rpl21 (protein, UniProt Q23TC8 1-157)
chain: MTHSYGYRRQTRKKFAKAYKTKGHVRISRYLTTYKVGEYVDIMVDGSQHKGMPYKLYHGRTGKVFNVNPRSIGVIVHRIVNGRYIEKRLHVKIEHVRPSNVKTALSKRYQANDQAKAEGNKAGKRVSTKRNPGQPLEAVQVQGAVNFQHPKVFREIF
As for B1, the binding entry was “binds”.
